Measurements reported in PubChem BioAssay AID2685 (National Center for Advancing Translational Sciences (NCATS), 2010).
Out of some 320,000 compounds screened, about 2,100 (0.66%) were called active. The inconclusive results got no clear call from the source; some entries with a clear call stand among them for comparison. The call rests on the fitted dose curve; in most records, active means well fitted inhibition curve with a large enough effect in the signal ratio, with a control signal flat (not every such curve was filed as active); inconclusive means small, poorly fitted or top-dose-only effect, or effect the other way, or a change in a side signal; inactive means flat fitted curve, though single readings scatter; the % refers to the signal ratio. Potencies of inconclusive entries are doubtful fits and often do not repeat.

Assay: qHTS Assay for Lipid Storage Modulators in Drosophila S3 Cells
Conditions: BODIPY lipid droplet fluorescence, 18-24 h, cells fed with added oleic acid; lipid storage change, negative = inhibition: at 46.1 µM (top of the series) unless noted
Outline: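 Drosophila S3 cells got compounds at several concentrations plus oleic acid (400 uM solution). Laser-scanning cytometry with 488 nm excitation read lipid droplets at 500-530 nm and cells at 575-640 nm. Percent activity was relative to 20 uM Triacsin C.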
On the % scale 0 is the no-effect control and ±100 the full control effect; potency means the concentration at half of the fitted maximal effect.

Structure (SMILES) | Potency | lipid storage change, negative = inhibition
Cc1ccc(OC(C)C(=O)N(C)Cc2ccccc2)c([N+](=O)[O-])n1 (stereo not drawn) | inconclusive: 29.1 µM [falling, single point] | –
COc1ccc(C)cc1NC(=O)CN1C(=O)c2cccc3cccc1c23 | – | inconclusive: -18.1%
COc1cc(OC)cc(C(=O)NN2CCCCC2)c1 | inconclusive: 32.6 µM [cytotoxic, single point] | –
CCOc1ccc(S(=O)(=O)Nc2cc(OC)ccc2OC)cc1 | – | inconclusive: 70.3%
Cc1ccc2nc(SCC(=O)Nc3cccc(F)c3)nc(=O)n2c1 | active: 4.11 µM | –
CCn1cc(/C=N/O)c(C)n1 | – | inactive
CC1CCCC(C)N1c1nnc(NC(=O)Cn2c(=O)oc3ccccc32)s1 (stereo not drawn) | – | inconclusive: 23.5%
Cc1ccc(C(CC(=O)O)C2CCOC(C)(C)C2)cc1 (stereo not drawn) | – | inconclusive: -0.656%
Cc1c(C(=O)Nc2ccc(F)cc2)sc2ncn(CC(=O)N3CCCCC3)c(=O)c12 | – | inconclusive: -33.6%
OCC[C@H]1C[C@@H](O)[C@H](O)[C@@]2(OCCc3ccccc32)O1 | – | inconclusive: 17.5%
COc1ccc(CCNC(=O)C(=O)NCC2CCCN2S(=O)(=O)c2cc(C)ccc2C)cc1 (stereo not drawn) | – | inconclusive
Cc1ccc(C(=O)Nc2cccc(C(F)(F)F)c2)cc1Nc1cncnc1 | – | inconclusive: -33.6%
O=c1c2cc(F)ccc2[nH]c(=S)n1CCCN1CCOCC1 | – | inconclusive: 29%
Cc1oc(-c2ccccc2F)nc1CS(=O)CC(=O)NC1CCCCC1 (stereo not drawn) | – | inconclusive: -5.04%
CCOC(=O)c1cc(-c2ccccc2)sc1NC(=O)C(C)Sc1nnnn1C (stereo not drawn) | – | inconclusive: 5.48%
Cc1c(Cl)cccc1NC(=O)CSc1nnc(C)n1-c1ccccc1 | – | inconclusive: 54.4%
Cc1cccc(NC(=O)CSc2ccc(-c3ccc4c(c3)OCO4)nn2)c1C | – | inconclusive: 22.4%
N/C(=N\OC(=O)COc1cc(Cl)c(Cl)cc1Cl)c1ccncc1 | – | inconclusive: 48.5%
O=C(COc1ccc(/C=N/NC(=O)c2ccccc2O)cc1)Nc1ccccc1 | – | inactive: 9.4% [at 9.22 µM]
OCc1cn(-c2ccccc2)nc1-c1ccc(Br)cc1 | – | inconclusive: -19.2%
COc1ccc(Cl)cc1NC(=O)CN(C)C(=O)c1cc(=O)c2ccccc2o1 | – | inconclusive: 20.6%
CCOC(=O)C(=O)Nc1ccc(OCc2ccccc2)cc1 | – | inconclusive: -1.93%
N#C/C(=C/c1cn(-c2ccccc2)nc1-c1cccc(OCc2ccc(F)cc2)c1)C(=O)NCCCn1ccnc1 | inconclusive: 29.1 µM [falling, single point] | –
Cc1cccc(C(=O)N2CCCC(N3CCN(c4cccc(Cl)c4)CC3)C2)n1 (stereo not drawn) | – | inconclusive: -36.4%
O=C(Nc1ccccc1)Nc1nnc(SCc2ccc(Cl)cc2)s1 | – | inconclusive: 15.4%
CCC(=O)Nc1cc(OC)cc(OC)c1 | – | inconclusive: 14.1%

Structure (SMILES) | Potency | lipid storage change, negative = inhibition
CCOC(=O)C(NCCc1ccccc1F)(NC(=O)CC)C(F)(F)F (stereo not drawn) | – | inconclusive: -6.24%
CCOC(=O)C1(Cc2cccc(OC)c2)CCCN(S(=O)(=O)N(C)C)C1 (stereo not drawn) | – | inconclusive: 10.9%
Cc1c(C(=O)N2CCN(C(=O)c3ccco3)CC2)oc2c(Cl)cccc12 | inconclusive: 0.366 µM [rising, full curve] | –
O=C(Nc1cccnc1)c1cccc(S(=O)(=O)N2CCCCC2)c1 | – | inconclusive: 9.3%
O=C(NCCCn1ccnc1)/C(=C\c1cccnc1)NC(=O)c1cccc(Br)c1 | – | inconclusive: 19.3%
CN1C(=O)C(=O)/C(=C(/O)c2ccccc2)C1c1ccc([N+](=O)[O-])cc1 (stereo not drawn) | – | inconclusive: 9.55%
CC1CCN(C(=O)CN(c2ccccc2)S(=O)(=O)N(C)C)CC1 | – | inconclusive: -37% [cytotoxic] [at 0.00295 µM]
CC1=NN(c2ccccc2)C(=O)/C1=C\c1cn(CCC#N)nc1-c1ccc(Cl)cc1 | inconclusive: 32.6 µM [falling, single point] | –
C/C(=C\c1cccc(Cl)c1Cl)C(=O)c1c(C)cc(C)[nH]c1=O | inconclusive: 29.1 µM [falling, single point] | –
CC(C)Cc1cc(C(=O)NCCCN2CCOCC2)no1 | – | inconclusive: -20.1%
COc1ccc(C2=CC(c3ccc(F)cc3)n3nnnc3N2)cc1 (stereo not drawn) | – | inconclusive: 31.7%
COc1ccc([C@]23Cc4ccccc4C(O2)C2=C(O3)C(=O)c3ccccc3C2=O)cc1 | inconclusive: 5.31 µM [activator, single point] | –
Cc1cc2ccccn2c1C(C[N+](=O)[O-])c1ccc(N(C)C)cc1 (stereo not drawn) | – | inactive
COc1cc(C(=O)N(Cc2ccc(F)cc2)C2CCS(=O)(=O)C2)cc(OC)c1OC (stereo not drawn) | – | inconclusive: 23.2%
O=C1c2ccccc2C(=O)N1CCOc1ccc(F)cc1 | – | inconclusive: -28.8%
Cc1cccn2c(=O)c3cc(C(N)=S)c(=N)n(CCCOC(C)C)c3nc12 | active: 9.2 µM | –
CC1(C)CC(NC(=O)C(Cl)(Cl)Cl)CC(C)(C)N1 | – | inconclusive: 8.27%
O=C(CC1Sc2ccccc2NC1=O)c1ccc(Br)cc1 (stereo not drawn) | – | inconclusive: 17.6%
CCOC(CNC(=O)CN1C(=O)COc2ccc(S(=O)(=O)N3CC(C)CC(C)C3)cc21)OCC (stereo not drawn) | inconclusive: 0.231 µM [activator, full curve, poor fit] | –
COc1ccccc1CNC(=O)CCCn1nc(C)c2c(C)n(-c3ccccc3)nc2c1=O | – | inconclusive: -80.5%
COCCn1c(C)cc(/C=C2/NC(=O)N(Cc3ccc(C)cc3)C2=O)c1C | inconclusive: 13 µM [falling, partial curve, poor fit] | –
O=C(Nc1ccon1)c1ccc(Br)s1 | inconclusive: 6.31 µM [falling, single point] | –
CCCCNS(=O)(=O)c1ccc(S(=O)(=O)N2CCC3(CC2)OCCO3)cc1 | – | inconclusive: -41.1%
O=C(NC(=O)c1ccccc1O)c1ccc(C(F)(F)F)cc1 | inconclusive: 20.6 µM [falling, partial curve, poor fit] | –
O=C(c1nc(-c2ccccc2)n(-c2ccccc2)n1)N1CCCCCC1 | – | inconclusive: -5.94%
COc1ccccc1-n1c(-c2ccc(Cl)cc2)c[nH]c1=S | – | inconclusive: -24.6% [at 9.22 µM]

Quoted from the listing.
Under lipid storage change, negative = inhibition, `CC1(C)CC(NC(=O)C(Cl)(Cl)Cl)CC(C)(C)N1` shows inconclusive: 8.27%
Under Potency, `COc1ccc([C@]23Cc4ccccc4C(O2)C2=C(O3)C(=O)c3ccccc3C2=O)cc1` shows inconclusive: 5.31 µM [activator, single point]
Under lipid storage change, negative = inhibition, `CCOC(=O)C(NCCc1ccccc1F)(NC(=O)CC)C(F)(F)F` (stereo not drawn) shows inconclusive: -6.24%
Under lipid storage change, negative = inhibition, `CC(C)Cc1cc(C(=O)NCCCN2CCOCC2)no1` shows inconclusive: -20.1%
Under lipid storage change, negative = inhibition, `COc1cc(C(=O)N(Cc2ccc(F)cc2)C2CCS(=O)(=O)C2)cc(OC)c1OC` (stereo not drawn) shows inconclusive: 23.2%

Additional entries.

Structure (SMILES) | Potency | lipid storage change, negative = inhibition
CCOC(=O)c1ccc(S(=O)(=O)N2CCN(S(=O)(=O)CC)CC2)cc1 | – | inconclusive: 2.53%
CC1(C)CC(=O)C2=C(C1)c1c(ccc3ccccc13)NC2c1ccc(Br)o1 (stereo not drawn) | – | inconclusive: 66.4%
CCN1CCc2c(C#N)c(N3CCOCC3)nc(NCCO)c2C1 | – | inconclusive: -39.5%
CCN(CC)S(=O)(=O)c1ccc(NS(=O)(=O)c2ccc(C)c(C)c2)cc1 | inconclusive: 0.731 µM [activator, single point] | –
COc1cccc(C(=O)Nc2cccc(-c3nc4ncccc4o3)c2C)c1 | – | inconclusive: 13.2%
Cc1ncc([N+](=O)[O-])n1CCOC(=O)NC(Nc1ccc(F)cc1)C(Cl)(Cl)Cl (stereo not drawn) | – | inconclusive: 12.3%
CC1CCC2CCCCC2N1C(=O)c1cc([N+](=O)[O-])cc([N+](=O)[O-])c1 (stereo not drawn) | – | inconclusive: 31.5%
O=C(NC(=S)Nc1ccccc1N1CCOCC1)c1ccccc1F | inconclusive: 29.1 µM [falling, single point] | –
C=CCN(CC=C)C(=S)NC(=O)/C=C/c1ccccc1 | – | inconclusive: -1.81%
CCOC(=O)c1c(C)n(O)c2ccc(Cl)cc2c1=O | – | inconclusive: 16.6%
O=C(NCCN1CCOCC1)C1CCCN(S(=O)(=O)c2ccc(F)cc2)C1 (stereo not drawn) | inconclusive: 0.517 µM [activator, partial curve, poor fit] | –
OC1(c2cccc(C(F)(F)F)c2)CCN(c2ncnc3c2[nH]c2ccccc23)CC1 | inconclusive: 0.13 µM [cytotoxic, full curve, poor fit] | –
COC(=O)c1cc(C(=O)OCC(=O)NCc2ccc3c(c2)OCO3)cc([N+](=O)[O-])c1 | – | inconclusive: 29.1%
NC(=S)Nc1cccc2[nH]ccc12 | – | inconclusive: 8.17%
CCOC(=O)/C(C#N)=C\c1ccc(OC)c(OC)c1 | inconclusive: 20.6 µM [rising, partial curve] | –
O=C(OCc1ccc(Br)cc1)c1cnc(Cl)c(Cl)c1 | – | inconclusive: -99.4%
CC1CCC(NC(=O)Cn2cnc3sccc3c2=O)CC1 (stereo not drawn) | – | inconclusive: 23.7%
CCN(CC(=O)Nc1ccc(OC)cc1)C(=O)CSCC(=O)Nc1ccc(C)cc1 | inconclusive: 0.0731 µM [activator, full curve, poor fit] | –
CCCCOC(=O)c1cc(=O)[nH]c(=O)[nH]1 | – | inconclusive: -78.8%
O=C(COC(=O)c1cc[n+]([O-])cc1)Nc1ccc([N+](=O)[O-])cc1Cl | – | inconclusive: -21.3%
Cc1c(C(=O)CN2CCCC(C)(C)C2)c2ccccc2n1C | – | inconclusive: 9.59%
CCC(=O)N1N=C(c2cccc(NS(C)(=O)=O)c2)CC1c1cccs1 (stereo not drawn) | – | inconclusive: 48.4%
CCOC(=O)C1(P(=O)(c2ccc(Cl)cc2)c2ccc(Cl)cc2)CCC1 | inconclusive: 0.651 µM [falling, full curve, poor fit] | –
COC(=O)c1ccc(CSc2nc3ccc(C)cc3[nH]2)o1 | inconclusive: 2.06 µM [activator, partial curve] | –
COc1ccc(C2CC(=O)C(CS(=O)(=O)c3ccccc3)C(=O)C2)cc1 (stereo not drawn) | – | inconclusive: -3.49%
COc1cc(C(C(=O)NC2CCCCC2)N(C(=O)c2snc(C(N)=O)c2N)c2ccc(C)cc2)ccc1O (stereo not drawn) | inconclusive: 20.6 µM [activator, single point] | –
